Source: patent US20080188460A1, “Tricyclic compounds, a process for their preparation and pharmaceutical compositions containing them” (LES LABORATOIRES SERVIER, priority 2007, published 2008)
Some entries share one result that the patent states for a list of compounds.

System: H146 small-cell lung carcinoma cells
Assay: Induction of caspase activity in vivo, H146 xenotransplant
Parameters: species or system mice (NOD SCID strain)
Details: tumour lysates, sixteen hours after intra-peritoneal treatment

CN(C)CC[C@H](CSc1ccccc1)Nc1ccc(S(=O)(=O)NC(=O)c2ccc3c(c2)CC[C@@H]2CN(Cc4ccccc4-c4ccccc4)CCN32)cc1[N+](=O)[O-].Cl.Cl [Example 23, N-{[(4aR)-3-([1,1′-Biphenyl]-2-ylmethyl)-2,3,4,4a,5,6-hexahydro-1H-pyrazino[1,2-a]quinolin-8-yl]carbonyl}-4-({(1R)-3-(dimethylamino)-1-[(phenylsulphanyl)methyl]propyl}amino)-3-nitrobenzene-sulphonamide bis(hydrochloride)]
activation of caspase 3 compared with the control: more than 700%
